Source: the supplement of paper PMC8732350
Structures can show the parent of a compound that is named as a salt. ± gives the standard deviation of the averaged measurements. The list shows a part of the results. This data set is noisy: repeats of one test often differ as much as different tests do.

System: A549
Test: surface PD-L1 immunofluorescence intensity relative to IFN-gamma-only control (ratio); higher = more PD-L1 expression
Conditions: 10 µM; exposure time 24 h; IFN-gamma 100 ng/mL

Structure (SMILES)	surface PD-L1 immunofluorescence intensity
Clc1cccc(Cl)c1NC1=NCCN1 [Clonidine hydrochloride]	0.933 ± 0.059
C[C@]12C=CC(=O)N[C@@H]1CC[C@@H]1[C@@H]2CC[C@]2(C)[C@@H](C(=O)Nc3cc(C(F)(F)F)ccc3C(F)(F)F)CC[C@@H]12 [Dutasteride]	1.04
CCCNC(=O)NS(=O)(=O)c1ccc(Cl)cc1 [Chlorpropamide]	1.06
CC(=O)O[C@]1(C(C)=O)CC[C@H]2[C@@H]3C=C(Cl)C4=CC(=O)CC[C@]4(C)[C@H]3CC[C@@]21C [Chlormadinone acetate]	0.882
NCCCCCC(=O)O [Aminocaproic acid]	1.01
CC(C)CCNC(=O)[C@H](CC(C)C)NC(=O)[C@H]1O[C@@H]1C(=O)O	1.09
COc1ccc2c(Oc3ccc(NC(=O)c4c(C)n(CC(C)(C)O)n(-c5ccccc5)c4=O)nc3)ccnc2c1	0.9946 ± 0.009
CN(C)C(=N)NC(=N)N [Metformin hydrochloride]	0.891
CC=CC(=O)N(CC)c1ccccc1C [Crotamiton]	1.03
Cc1nc2c([nH]1)-c1ccccc1N(C(=O)c1ccc(NC(=O)c3ccccc3-c3ccccc3)cc1)CC2 [Conivaptan HCl (Vaprisol)]	1.14
CNCCc1ccccn1 [Betahistine mesylate]	1.02
CC1=C(C)C(=O)C(C(CCCCCC(=O)O)c2ccccc2)=C(C)C1=O (centres undefined) [Seratrodast]	0.912
CCCCCCCCCCCCCCCC(=O)OC[C@H](O)[C@H]1OC(=O)C(O)=C1O [Ascorbyl palmitate]	1.06
N#C/C(=C\c1ccc(O)c(O)c1)C(=O)NCCCCc1ccccc1	0.962
Nc1nc2c(ncn2COC(CO)CO)c(=O)[nH]1 [Ganciclovir]	0.977
C[C@H](CCC(=O)O)[C@H]1CC[C@H]2[C@@H]3[C@@H](O)C[C@@H]4C[C@H](O)CC[C@]4(C)[C@H]3CC[C@]12C [Urosiol]	1.06
C#C[C@]1(O)CC[C@H]2[C@@H]3CCC4=CCCC[C@@H]4[C@H]3CC[C@@]21C [Lynestrenol]	1.07
O=C(Nc1ccncc1)c1cc([N+](=O)[O-])ccc1Cl	0.988
CCCCCCNC(=O)Nc1ccc(S(=O)(=O)Nc2ccc(CCNC[C@H](O)COc3ccc(O)cc3)cc2)cc1	0.947
O=C(CCCN1CCN(c2ccccn2)CC1)c1ccc(F)cc1 [Azaperone]	1.02
N[C@@H](CS(=O)O)C(=O)O [L-Cysteinesulfinic acid]	1.17
CCCCC/C=C/C=C1/C(=O)C=C[C@@H]1C/C=C\CCCC(=O)O [15-Deoxy-D12,14-prostaglandin J2]	1.08
NC[C@@H]1O[C@@H](O[C@H]2[C@H](O)[C@@H](O[C@H]3O[C@H](CO)[C@@H](O)[C@H](N)[C@H]3O)[C@H](N)C[C@@H]2N)[C@@H](O)[C@H](O)[C@H]1O [Kanamycin A sulfate]	0.999
Nc1nc(-c2ccc(Cl)c(Cl)c2)c(-c2ccncc2)s1 [CGH 2466 dihydrochloride]	0.928
COCCCN1CCC(NC(=O)c2cc(Cl)c(N)c3c2OCC3)CC1 [Prucalopride]	1.03

Structure (SMILES)	surface PD-L1 immunofluorescence intensity
COC(=O)[C@H](NC(=O)c1cc(-c2ccccc2)nc2ccccc12)c1ccccc1	0.975
COC(=O)C1=C(C#N)NC(C)=C(C(=O)OC(C)C)C1c1cccc([N+](=O)[O-])c1 (centres undefined) [Nilvadipine]	0.951
N#Cc1cc2nc(O)c(O)nc2cc1[N+](=O)[O-] [CNQX disodium salt]	1.05
C[C@@H](CN1CCC(Cc2ccccc2)CC1)[C@@H](O)c1ccc(O)cc1 [Ro 25-6981 maleate]	0.987
CNc1nc(Nc2cn(C(C)(C)C#N)nc2C)ncc1C(F)(F)F	0.974
CC1CC(OC(=O)c2ccccc2O)CC(C)(C)C1 (centres undefined) [Homosalate]	1.04
CN(C)C(=O)[C@H](O)[C@H](Cc1ccccc1)NC(=O)c1cc2cc(Cl)ccc2[nH]1	0.992
CC1(C(=O)O)NCCc2cc(O)c(O)cc21 (centres undefined) [Salsolinol-1-carboxylic acid]	1.02
Cl/C(=C\n1cncn1)c1ccc(Cl)cc1Cl [Loreclezole hydrochloride]	1.03
CCC(=O)NC1Cc2ccccc2C(c2ccccc2)C1 (centres undefined)	1.16
COc1ccc(C2CC(=O)c3c(O)cc(OC4OC(COC5OC(C)C(O)C(O)C5O)C(O)C(O)C4O)cc3O2)cc1OC (centres undefined) [Methyl-Hesperidin]	1.1
N[C@@H](Cc1cc(I)c(Oc2ccc(O)c(I)c2)c(I)c1)C(=O)O [Liothyronine]	0.965
CN1CCC(=C2c3ccccc3Sc3ccccc32)CC1 [Pimethixene maleate]	1.03
Cc1cc(C)c(S(=O)(=O)Nc2ccccc2C(F)(F)F)c(C)c1	0.981
CC(C)[C@H](CO)Nc1nc(Nc2ccc(C(=O)O)c(Cl)c2)c2ncn(C(C)C)c2n1 [Purvalanol B]	0.955
CCCN(C/C=C/I)C1CCc2cccc(O)c2C1 (centres undefined) [8-Hydroxy-PIPAT oxalate]	1.1
C[C@@H]1C[C@H]2[C@@H]3CCC4=CC(=O)C=C[C@]4(C)[C@@]3(F)[C@@H](O)C[C@]2(C)[C@@]1(O)C(=O)COP(=O)(O)O [Dexamethasone Sodium Phosphate]	0.798
OCCN(CCO)c1nc(N2CCCCC2)c2nc(N(CCO)CCO)nc(N3CCCCC3)c2n1 [Dipyridamole]	1.04 ± 0.14
CC(CCCCC(=O)Nc1ccc(C(F)(F)F)cc1)NCCc1cnc[nH]1 (centres undefined) [HTMT dimaleate]	1.04
Cc1ccc(NC(=O)c2cccc(C(C)(C)C#N)c2)cc1Nc1ccc2ncn(C)c(=O)c2c1	0.944 ± 0.056
O=C(O)c1ccccc1C(=O)Nc1ccc(S(=O)(=O)Nc2nccs2)cc1 [Phthalylsulfathiazole]	1.1
CN(c1nccc(=O)[nH]1)C1CCN(c2nc3ccccc3n2Cc2ccc(F)cc2)CC1 [Mizolastine]	0.966
CCS(=O)(=O)N1CCC[C@@H]2CN3CCc4cc(OC)ccc4[C@@H]3C[C@@H]21	1.06
CC(C)(C)[N+]([O-])=Cc1ccc(S(=O)(=O)O)cc1S(=O)(=O)O	0.988
CN1CCN(C(c2ccccc2)c2ccccc2)CC1 [Cyclizine hydrochloride]	1.01

Structure (SMILES)	surface PD-L1 immunofluorescence intensity
COC(=O)[C@@H]1CC2=CC(=O)CC[C@]2(C)[C@@]23O[C@@H]2C[C@@]2(C)[C@@H](CC[C@@]24CCC(=O)O4)[C@H]13 [Eplerenone]	0.935 ± 0.05
CC(C)OC(=O)C1=CN(C(=O)c2ccc(F)c(F)c2)CC(C)(C)c2c1[nH]c1ccccc21	0.989
C[C@H](CCC(=O)NCCS(=O)(=O)O)[C@H]1CC[C@H]2[C@@H]3CC[C@@H]4C[C@H](O)CC[C@]4(C)[C@H]3C[C@H](O)[C@]12C [Taurodeoxycholic acid]	1.07
CCN(CC)CC(=O)Nc1c(C)cccc1C [Lidocaine hydrochloride]	0.85
c1ccc2c(CC3=NCCN3)cccc2c1 [Naphazoline hydrochloride]	0.917
CC(=O)OCC(=O)[C@@]12OC(C)(C)O[C@@H]1C[C@H]1[C@@H]3C[C@H](F)C4=CC(=O)C=C[C@]4(C)[C@@]3(F)[C@@H](O)C[C@@]12C [Fluocinonide]	0.91
CC(=O)OCC(=O)[C@@]12OC(C)(C)O[C@@H]1C[C@H]1[C@@H]3C[C@H](F)C4=CC(=O)C=C[C@]4(C)[C@@]3(F)[C@@H](O)C[C@@]12C [Fluocinonide (Vanos)]	0.792
CO[C@@H]1[C@@H](O[C@@H]2O[C@H](C)[C@@H](O[C@H]3C[C@@](C)(O)[C@@H](OC(=O)CC(C)C)[C@H](C)O3)[C@H](N(C)C)[C@H]2O)[C@@H](CC=O)C[C@@H](C)[C@@H](O)/C=C/C=C/C[C@@H](C)OC(=O)C[C@H]1OC(C)=O [Josamycin]	0.899
O=c1oc2c(O)c(O)cc3c(=O)oc4c(O)c(O)cc1c4c23 [Ellagic acid]	1.03
O=c1oc2c(O)c(O)cc3c(=O)oc4c(O)c(O)cc1c4c23 [Ellagic Acid]	1.05
NS(=O)(=O)c1cc2c(cc1Cl)NC(C1CC3C=CC1C3)NS2(=O)=O (centres undefined) [Cyclothiazide]	1.11
CC(=O)CC(c1ccccc1)c1c(O)c2ccccc2oc1=O (centres undefined) [Warfarin]	1.04
CNC(=O)c1cc(Oc2ccc(NC(=O)Nc3ccc(Cl)c(C(F)(F)F)c3)cc2)ccn1 [Sorafenib (Nexavar)]	0.981
OCc1ccccc1O[C@@H]1O[C@H](CO)[C@@H](O)[C@H](O)[C@H]1O [Salicin (Salicoside, Salicine)]	1.14
COc1ccc(NS(=O)(=O)c2ccc(I)cc2)cc1N1CCN(C)CC1	0.942
CN1C(CCl)Nc2cc(Cl)c(S(N)(=O)=O)cc2S1(=O)=O (centres undefined) [Methyclothiazide]	1.06
C=CC1=C(C(=O)O)N2C(=O)[C@@H](NC(=O)/C(=N\O)c3csc(N)n3)[C@H]2SC1 [Cefdinir (Omnicef)]	1.04
C=CC1=C(C(=O)O)N2C(=O)[C@@H](NC(=O)/C(=N\O)c3csc(N)n3)[C@H]2SC1 [Cefdinir]	0.985
Cc1cn([C@H]2C=C[C@@H](CO)O2)c(=O)[nH]c1=O [Stavudine]	0.997 ± 0.054
CC(=O)NS(=O)(=O)c1ccc(N)cc1 [Sulfacetamide sodic hydrate]	0.865
CC(=O)NS(=O)(=O)c1ccc(N)cc1 [Sulfacetamide Sodium]	0.969
CN(C)CCCN=c1c2ccccc2n(C)c2[nH]c(=O)n(C)c(=O)c12	0.963
NC(=O)CCCCn1ccc(NC(N)=NCC(F)(F)F)n1	0.865
CCCCCCCC/C=C\CCCCCCCC(N)=O [Oleamide]	1.01

Two records drawn at random from the list so far:
Structure (SMILES)	surface PD-L1 immunofluorescence intensity
C[C@H](CCC(=O)NCCS(=O)(=O)O)[C@H]1CC[C@H]2[C@@H]3CC[C@@H]4C[C@H](O)CC[C@]4(C)[C@H]3C[C@H](O)[C@]12C [Taurodeoxycholic acid]	1.07
NS(=O)(=O)c1cc2c(cc1Cl)NC(C1CC3C=CC1C3)NS2(=O)=O (centres undefined) [Cyclothiazide]	1.11
